Data from patent US6461815.
The exact form of at least one protein or probe is not confirmed. Negatives hold for the conditions tested.

Key:
[1] = test system: 30S ribosomal subunit (mRNA-programmed, activated + ribonucleoprotein); experiment: footprint; details: poly(A)-programmed, 20 C, purified native protein
[2] = test system: 30S ribosomal subunit (mRNA-programmed, activated + ribonucleoprotein); experiment: filter binding; details: purified native protein

Sequence: UCAGACUUUUAAUCUGA [ASLLys3(SUU), s2U34 anticodon stem-loop]
- binding result ([1]; s2U at tRNA position 34, same 16S P-site footprint as native tRNALys): binds

Sequence: UCAGACUUUUAAUCUGA [ASLLys3(UUU), unmodified anticodon stem-loop]
- binding result ([1]; no substantial protection of P-site nucleotides): no binding
- binding result ([2]; AAA- or AAG-programmed, CMN buffer 20 mM MgCl2): no binding

Sequence: UCAGACUUUUAAUCUGA [ASLLys(UUU) with t6A37]
- binding result ([2]; t6A (N6-threonylcarbamoyladenosine) at tRNA position 37, t6A37 critical for binding versus unmodified A37, as in FIG. 2): binds
